PubChem BioAssay AID1224830 – NIAID, 2016

Aim: 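Host factors that control LPS-induced TNF expression in human macrophages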 (primary screen)
Cells: human THP-1 monocytic leukaemia cells, TNF dual-luciferase reporter clone, PMA-differentiated to macrophage-like cells
Reagents: siRNA pool against human genes, 50 nM
Duration: LPS for 4 h, given about 3 days after siRNA transfection
Treatment: bacterial LPS (TLR4 ligand), 10 ng/ml
Read-out: 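TNF firefly reporter luminescence divided by renilla, normalised to the plate median, then turned into a robust z-score for each replicate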
Scale: TNF reporter robust z-score: higher = stronger TNF reporter response to LPS
Hit rule: 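Each well counts as active if its z-score is over 2.8 or under -1.5; controls are left without a call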
Shown is one part, drawn at random, of about 18,000 deposited reagents. About 2,900 of all reagents (16%) count as active. 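Calls are made per well; low scores hint the gene aids the LPS response, high scores that it dampens it.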 A number with no mark means an inactive call. Repeated entries: four replicate wells of each siRNA pool.

UTP11 — TNF reporter robust z-score: 0.67
UTP11 — TNF reporter robust z-score: -0.38
UTP11 — TNF reporter robust z-score: -0.33
UTP11 — TNF reporter robust z-score: 0.46
NEK10 — TNF reporter robust z-score: 0.04
NEK10 — TNF reporter robust z-score: -0.99
NEK10 — TNF reporter robust z-score: 0.02
DYNLT2B — TNF reporter robust z-score: -0.5
DYNLT2B — TNF reporter robust z-score: -0.54
DYNLT2B — TNF reporter robust z-score: -0.14
DYNLT2B — TNF reporter robust z-score: 0.27
PRPF3 — TNF reporter robust z-score: -0.06
PRPF3 — TNF reporter robust z-score: 0.87
PRPF3 — TNF reporter robust z-score: -0.43
PRPF3 — TNF reporter robust z-score: 1.33
NPR1 — TNF reporter robust z-score: -0.51
NPR1 — TNF reporter robust z-score: 0.79
NPR1 — TNF reporter robust z-score: 0.2
NPR1 — TNF reporter robust z-score: 1.55

Entries above whose target name starts with D or d (4):
DYNLT2B — TNF reporter robust z-score: -0.5
DYNLT2B — TNF reporter robust z-score: -0.54
DYNLT2B — TNF reporter robust z-score: -0.14
DYNLT2B — TNF reporter robust z-score: 0.27

The listing continues:
NUP35 — TNF reporter robust z-score: 0.87
NUP35 — TNF reporter robust z-score: 0.13
NUP35 — TNF reporter robust z-score: 0.5
NUP35 — TNF reporter robust z-score: 0.77
PRPF40B — TNF reporter robust z-score: -0.76
PRPF40B — TNF reporter robust z-score: -0.2
PRPF40B — TNF reporter robust z-score: -0.73
PRPF40B — TNF reporter robust z-score: -0.91
MARS2 — TNF reporter robust z-score: 0.77
MARS2 — TNF reporter robust z-score: 1.06
MARS2 — TNF reporter robust z-score: 0.27
MARS2 — TNF reporter robust z-score: 0.97
PAX5 — TNF reporter robust z-score: 0.65
PAX5 — TNF reporter robust z-score: 0.5
PAX5 — TNF reporter robust z-score: 1.04
PAX5 — TNF reporter robust z-score: 0.01
EFNB3 — TNF reporter robust z-score: -0.35
EFNB3 — TNF reporter robust z-score: 2.31
EFNB3 — TNF reporter robust z-score: 0.16
EFNB3 — TNF reporter robust z-score: -0.96
HSPG2 — TNF reporter robust z-score: -0.62
HSPG2 — TNF reporter robust z-score: 0.25
HSPG2 — TNF reporter robust z-score: -0.25
HSPG2 — TNF reporter robust z-score: -0.33
ZNF606 — TNF reporter robust z-score: -0.15
ZNF606 — TNF reporter robust z-score: 0.33
ZNF606 — TNF reporter robust z-score: -0.83
ZNF606 — TNF reporter robust z-score: -0.53
